The other results are listed elsewhere or left out. Single values are uncertain here, since repeats match poorly.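 The cells were human embryonic kidney cells carrying a Renilla luciferase gene, driven by the HSV-TK promoter, on a plasmid put in briefly by transfection. This is the first-round screen of about ten thousand compounds, looking for ones that raise reporter output.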
tested on: HEK 293FT; test: log relative Renilla luciferase luminescence (reporter expression vs reference, reference not stated) (log (base not stated)); higher = higher recombinant reporter expression; details: 10 µM; time after transfection 48 h
Procedure: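 HEK 293FT cells transiently transfected with pRL-TK (Renilla luciferase) were treated with compounds at 10 uM and luminescence was read about 42 h later. Values are log relative Renilla luminescence (log base and reference not stated). Single-pass screen; 2080 natural products library.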

Row | SMILES | log
1 | C=CC(C)(C)c1c(O)cc(O)c2c(=O)c3c4c(c(O)cc3oc12)OC(C)(C)C=C4 [Cudraxanthone B] | -0.0544
2 | C=C(C)[C@@H]1CC[C@]2(CO)CC[C@]3(C)[C@H](CC[C@@H]4[C@@]5(C)CC[C@H](O)C(C)(C)[C@@H]5CC[C@]43C)[C@@H]12 [Betulin] | -0.0844
3 | O=C(OC1C=C(CO)C2C(OC3OC(CO)C(O)C(O)C3O)OC=CC12)c1ccc(O)cc1 (stereo not drawn) [6-O-p-Hydroxybenzoylaucubin] | -0.0114
4 | C=C1CCCc2c(ccc3c2C(=O)C(=O)c2c(C)coc2-3)/C(C)=C/CCc2c1ccc1c2C(=O)C(=O)c2c(C)coc2-1 [Neoprzewaquinone A] | -0.0547
5 | C=C1[C@@H]2CC[C@H]3[C@@]45CO[C@](O)([C@@H](O)[C@@H]4C(C)(C)C=CC5=O)[C@]3(C2)[C@@H]1OC(C)=O [Maoecrystal B] | -0.121
6 | O=c1ccc2ccc(O)cc2o1 [Umbelliferone] | -0.619
7 | CC1(C(=O)O)CCCC2(C)C3CCC4CC3(CCC12)CC4C(=O)O (stereo not drawn) [ent-kauran-17,19-dioic acid] | 0.27
8 | COc1cc(OC)c2c(c1)O[C@@]1(c3ccc(OC)c(O)c3)[C@H](c3ccccc3)[C@@H](C(=O)N(C)C)[C@@H](O)[C@@]21O [3'-Hydroxyrocaglamide] | -1.18
9 | O=C1C[C@@H](c2cc(O)cc(O)c2)Oc2cc(O)cc(O)c21 [3',5,5',7-Tetrahydroxyflavanone] | -0.354
10 | COc1cc2ccc(=O)oc2cc1OC [Scoparone] | 0.0352
11 | COc1cc(/C=C/C=O)ccc1O [Coniferaldehyde] | 0.122
12 | C=C(C)[C@H](CC=C(C)C)Cc1c(O)cc(O)c2c1O[C@H](c1ccc(O)cc1OC)CC2=O [Leachianone A] | -0.131
13 | CC[C@H](CC[C@@H](C)[C@H]1CC[C@H]2[C@@H]3CCC4=CC(=O)CC[C@]4(C)[C@H]3CC[C@]12C)C(C)C [Sitostenone] | -0.228

Two entries drawn at random from the list so far, as already listed:
Row | SMILES | log
11 | COc1cc(/C=C/C=O)ccc1O [Coniferaldehyde] | 0.122
10 | COc1cc2ccc(=O)oc2cc1OC [Scoparone] | 0.0352

— the supplement of paper PMC7024190
